PubChem BioAssay AID504764, Drosophila RNAi Screening Center, 2011

Screen: 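Knock-downs that raise or lower a Notch target reporter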 (primary screen)
Cell system: Drosophila Kc167 cells
Knock-down reagent: long dsRNA against Drosophila genes
Duration: about 5 days (4 days dsRNA, then 24 h after transfection)
Challenge: transfection of constitutively active membrane-tethered Notch lacking the extracellular domain, read 24 h later
Measured: 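Firefly luciferase from an E(spl)m3 reporter with active Notch, plus control-promoter and uninduced reporter wells for normalisation; unnormalised counts, duplicate wells a and b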
Scale: induced reporter light, run 1, well a and induced reporter light, run 1, well b: higher = more light from the Notch target reporter with active Notch; control promoter light, run 1, well a and control promoter light, run 1, well b: higher = more light from the viral control promoter (cell number, transfection, viability); uninduced reporter light, run 1, well a: higher = more light from the Notch target reporter without active Notch
Hit rule: 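Wells with low control signal or poorly matching duplicates excluded; duplicates averaged; per source plate, z beyond ±2 for induced/control log2 ratio or beyond ±1.8 for induced/uninduced marks a hit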
Meaning of the calls: active = modifier hit (raised or lowered Notch signal); inactive = not a hit
The deposit covers about 22,000 reagents; shown is a random part of those that have a named target and a result. In the full data, 403 (1.9%) are marked active. 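Unnormalised raw counts per well; ratio z-scores behind the hit calls and whether each hit raises or lowers signal are not deposited.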 A plus sign joins genes that one reagent is predicted to hit. The record does not give: the amount of reagent.

| gene | DRSC id | induced reporter light, run 1, well a | induced reporter light, run 1, well b | control promoter light, run 1, well a | control promoter light, run 1, well b | uninduced reporter light, run 1, well a | Outcome |
| --- | --- | --- | --- | --- | --- | --- | --- |
| form3 (formin 3) | DRSC10195 | 1.87e5 | 1.57e5 | 1.86e5 | 2.21e5 | 15785 | inactive |
| form3 (formin 3) | DRSC10297 | 77375 | 1.06e5 | 58685 | 25390 | 10470 | inactive |
| form3 (formin 3) | DRSC11024 | 1.69e5 | 1.73e5 | 2.08e5 | 1.58e5 | 9338 | inactive |
| Tsp42Ef (Tetraspanin 42Ef) | DRSC06191 | 2.18e5 | 1.79e5 | 2.86e5 | 2.36e5 | 16720 | inactive |
| U3-55K (U3 small nuclear riboprotein factor 55K) | DRSC05982 | 79670 | 85580 | 87615 | 84225 | 7085 | inactive |
| betaNACtes2 (Nascent-associated complex beta-subunit-like, testis 2) | DRSC19792 | 88780 | 65400 | 67635 | 55555 | 10650 | inactive |
| CG12170 | DRSC12199 | 1.21e5 | 1.54e5 | 84185 | 83395 | 10835 | inactive |
| Pgant8 (Polypeptide N-Acetylgalactosaminyltransferase 8) | DRSC10801 | 1.68e5 | 1.56e5 | 2.14e5 | 2.01e5 | 8840 | inactive |
| ncm (nucampholin) | DRSC02179 | 28535 | 31250 | 31105 | 31220 | 2795 | inactive |
| CG30427 | DRSC04014 | 1.21e5 | 1.46e5 | 2.04e5 | 1.88e5 | 7860 | inactive |
| CG30427 | DRSC04311 | 2.36e5 | 1.78e5 | 1.44e5 | 1.77e5 | 12840 | inactive |
| CG30427 | DRSC04323 | 1.83e5 | 2.04e5 | 1.85e5 | 1.91e5 | 16160 | inactive |
| flr (flare) | DRSC09787 | 1.10e5 | 1.11e5 | 98770 | 56525 | 10982 | inactive |
| CG34406 (retired record) | DRSC00523 | 1.82e5 | 1.90e5 | 1.40e5 | 1.72e5 | 15445 | inactive |
| CG34406 (retired record) | DRSC00606 | 1.65e5 | 1.55e5 | 2.04e5 | 2.05e5 | 11555 | inactive |
| His4:CG33883 + His4:CG33889 + His4:CG33899 + 20 more | DRSC21268 | 53585 | 48610 | 72530 | 88055 | 8395 | inactive |
| Pngl (PNGase-like) | DRSC04914 | 2.53e5 | 2.07e5 | 2.20e5 | 1.97e5 | 17515 | inactive |
| CG9948 | DRSC11104 | 1.09e5 | 84000 | 62690 | 50125 | 7545 | inactive |
| Pcif1 (Phosphorylated CTD-interacting factor 1) | DRSC11655 | 1.19e5 | 1.34e5 | 80305 | 1.09e5 | 9250 | inactive |
| CG7639 | DRSC07026 | 69210 | 84580 | 1.13e5 | 1.03e5 | 8100 | inactive |
| gny (garnysstan) | DRSC02810 | 2.41e5 | 2.62e5 | 2.12e5 | 2.29e5 | 20655 | inactive |
| Uba2 (Ubiquitin-like activating enzyme 2) | DRSC11311 | 2.61e5 | 2.19e5 | 3.23e5 | 2.39e5 | 10830 | inactive |
| Rubicon | DRSC17889 | 1.21e5 | 1.17e5 | 2.47e5 | 1.65e5 | 8935 | inactive |
| CG9674 | DRSC11088 | 1.32e5 | 1.42e5 | 87415 | 85055 | 10095 | inactive |
| CG9674 | DRSC11089 | 1.89e5 | 1.47e5 | 2.24e5 | 1.28e5 | 7480 | inactive |

Continued (7 carried over from the part before).
| gene | DRSC id | induced reporter light, run 1, well a | induced reporter light, run 1, well b | control promoter light, run 1, well a | control promoter light, run 1, well b | uninduced reporter light, run 1, well a | Outcome |
| --- | --- | --- | --- | --- | --- | --- | --- |
| Pcif1 (Phosphorylated CTD-interacting factor 1) | DRSC11655 | 1.19e5 | 1.34e5 | 80305 | 1.09e5 | 9250 | inactive |
| CG7639 | DRSC07026 | 69210 | 84580 | 1.13e5 | 1.03e5 | 8100 | inactive |
| gny (garnysstan) | DRSC02810 | 2.41e5 | 2.62e5 | 2.12e5 | 2.29e5 | 20655 | inactive |
| Uba2 (Ubiquitin-like activating enzyme 2) | DRSC11311 | 2.61e5 | 2.19e5 | 3.23e5 | 2.39e5 | 10830 | inactive |
| Rubicon | DRSC17889 | 1.21e5 | 1.17e5 | 2.47e5 | 1.65e5 | 8935 | inactive |
| CG9674 | DRSC11088 | 1.32e5 | 1.42e5 | 87415 | 85055 | 10095 | inactive |
| CG9674 | DRSC11089 | 1.89e5 | 1.47e5 | 2.24e5 | 1.28e5 | 7480 | inactive |
| Osi22 (Osiris 22) | DRSC16442 | 2.34e5 | 2.76e5 | 2.35e5 | 2.50e5 | 18115 | inactive |
| CNT2 (Concentrative nucleoside transporter 2) | DRSC07073 | 69335 | 69590 | 80120 | 71675 | 7070 | inactive |
| Npc1b (Niemann-Pick type C-1b) | DRSC20488 | 91545 | 90330 | 1.04e5 | 1.10e5 | 9975 | inactive |
| AttA (Attacin-A) | DRSC05926 | 2.55e5 | 2.02e5 | 2.50e5 | 2.44e5 | 16845 | inactive |
| RIOK2 (RIO kinase 2) | DRSC14413 | 1.48e5 | 1.39e5 | 2.04e5 | 1.87e5 | 13330 | inactive |
| CG15773 | DRSC18079 | 1.34e5 | 1.33e5 | 2.31e5 | 2.59e5 | 10225 | inactive |
| Acbp6 (Acyl-CoA binding protein 6) | DRSC10217 | 2.76e5 | 1.96e5 | 3.40e5 | 2.45e5 | 11480 | inactive |
| CG16868 | DRSC06633 | 83765 | 93085 | 1.83e5 | 2.00e5 | 8400 | inactive |
| Rab9D + Rab9Fa + Rab9E | DRSC19853 | 1.31e5 | 1.18e5 | 2.47e5 | 2.29e5 | 8270 | inactive |
| Cht11 (Chitinase 11) | DRSC18270 | 1.91e5 | 1.57e5 | 2.38e5 | 2.94e5 | 12780 | inactive |
| Spt (Spitting Image) | DRSC07123 | 2.22e5 | 1.96e5 | 2.53e5 | 2.62e5 | 18740 | inactive |
| CG30281 | DRSC04528 | 2.03e5 | 1.82e5 | 1.46e5 | 1.52e5 | 16232 | inactive |
| Cad88C (Cadherin 88C) | DRSC15486 | 2.66e5 | 2.84e5 | 2.51e5 | 2.51e5 | 20050 | inactive |
| TwdlM (TweedleM) | DRSC15810 | 1.77e5 | 1.84e5 | 2.81e5 | 2.10e5 | 20410 | inactive |
| CG7031 | DRSC16178 | 9265 | 10690 | 7275 | 7865 | 2770 | inactive |
| bam (bag of marbles) | DRSC16907 | 1.20e5 | 1.24e5 | 1.61e5 | 1.64e5 | 10110 | inactive |
| Glt (Glutactin) | DRSC03333 | 2.47e5 | 2.55e5 | 2.52e5 | 2.50e5 | 17980 | inactive |
| Or45b (Odorant receptor 45b) | DRSC07488 | 1.69e5 | 1.31e5 | 1.80e5 | 1.61e5 | 13970 | inactive |
| CG12419 (retired record) | DRSC14513 | 10865 | 11335 | 15555 | 15425 | 1430 | inactive |
| Elba1 (Early boundary activity 1) | DRSC00276 | 1.79e5 | 1.98e5 | 2.00e5 | 1.65e5 | 13340 | inactive |
| CG6136 | DRSC15975 | 1.51e5 | 1.38e5 | 1.33e5 | 1.35e5 | 11465 | inactive |
| mys (myospheroid) | DRSC18799 | 1.39e5 | 1.18e5 | 2.69e5 | 2.30e5 | 9530 | inactive |
| MstProx + Mst84Da | DRSC12597 | 1.01e5 | 95980 | 77980 | 99035 | 4820 | inactive |
| CG9588 | DRSC16504 | 2.56e5 | 2.47e5 | 2.38e5 | 2.43e5 | 20800 | inactive |
| CG9447 | DRSC05008 | 2.09e5 | 1.77e5 | 2.58e5 | 2.33e5 | 15030 | inactive |
